# Laboratory results from PubChem BioAssay AID2253 (Southern Research Specialized Biocontainment Screening …, 2010).
# The whole screen tested about 2,200 compounds, of which about 1,300 (59%) were called active. How the calls were made is not given here. So high a share suggests a set chosen from earlier hits. Only a part is listed here, and it is no random draw. Results with a measured potency or affinity are listed apart.
# Test: THP-1 cell cytotoxicity, dose response, cytotoxicity control for Salmonella PhoP regulon inhibitors, S. typhimurium screen hits (AID 2253)
# Conditions: THP-1 viability, CellTiter-Glo luminescence, 72 h; at 50 µM (top of the series)
row,SMILES,viability
1,CN(C)[C@@H]1C(=O)C(C(N)=O)=C(O)[C@@]2(O)C(=O)C3=C(O)c4c(O)cccc4[C@@](C)(O)C3[C@H](O)C12 (stereo partly specified),inactive: 84.5%
